Record: PubChem BioAssay AID1159578 (Peter MacCallum Cancer Centre, 2015)
Purpose: 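Knock-downs that alter how fast lymphatic endothelial cells migrate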 (primary screen). Cells: human lymphatic endothelial cells. Knock-down reagent: siRNA pool against human genes, 40 nM. Timing: 48 h after transfection. Detection: 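Cells stained with dye and imaged after a scratch; covered wound area and nuclei counted, duplicates averaged, migration set against mock wells and turned into a robust z-score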. Direction: migration robust z-score: higher = faster migration into the scratch; migration relative to mock: higher = more scratch area covered than mock; nuclei per well: higher = more cells in the well. Active means: 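Migration changed when robust z exceeds 2 or falls below -2 and mean nuclei number is at least 3300; otherwise not called changed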. Calls: active = migration changed; inactive = no migration change, or too few cells.
Shown is an unselected part of about 18,000 reagents. About 1,030 of them (5.7%) count as active. 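Inactive calls also include pools with fewer than 3300 nuclei, whose migration was not assessed.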 Raw values are not corrected between plates.

| target | migration robust z-score | migration class with cell-count check | migration relative to mock | nuclei per well, duplicate mean | call |
| --- | --- | --- | --- | --- | --- |
| SLC35E4 | -0.24 | migration z between -2 and 2; enough cells | 0.82 | 6951 | inactive |
| ARAP1 | -0.85 | migration z between -2 and 2; enough cells | 0.66 | 6071 | inactive |
| TMEM255B | 0.37 | migration z between -2 and 2; enough cells | 0.98 | 5260 | inactive |
| CLCN3 | 0.64 | migration z between -2 and 2; enough cells | 0.93 | 6514 | inactive |
| PRRT1 | -0.66 | migration z between -2 and 2; enough cells | 0.72 | 5800 | inactive |
| MYD88 | 2.25 | migration z above 2; enough cells | 1.46 | 5376 | active |
| IFNA10 | -0.9 | migration z between -2 and 2; enough cells | 0.65 | 5498 | inactive |
| ZNF776 | -0.54 | migration z between -2 and 2; enough cells | 0.74 | 5486 | inactive |
| JPH3 | 0.84 | migration z between -2 and 2; enough cells | 1.1 | 5679 | inactive |
| PACS2 | 0.17 | migration z between -2 and 2; enough cells | 0.93 | 6300 | inactive |
| RTL8A | -0.82 | migration z between -2 and 2; enough cells | 0.67 | 5236 | inactive |
| FASN | -0.5 | migration z between -2 and 2; enough cells | 0.71 | 3633 | inactive |
| EIF4E2 | -0.44 | migration z between -2 and 2; enough cells | 0.72 | 4352 | inactive |
| HBG1 | -0.91 | migration z between -2 and 2; enough cells | 0.63 | 5466 | inactive |
| ANKRA2 | 0.16 | migration z between -2 and 2; enough cells | 0.92 | 5026 | inactive |
| SNRPD2 | -1.27 | migration z between -2 and 2; enough cells | 0.55 | 5816 | inactive |
| AMPH | 0.22 | migration z between -2 and 2; enough cells | 0.94 | 5780 | inactive |
| HIPK3 | -5.16 | under 3300 nuclei; migration not judged | -0.19 | 2930 | inactive |
| RPF1 | 0.36 | migration z between -2 and 2; enough cells | 0.98 | 6338 | inactive |
| LGI4 | 0.88 | migration z between -2 and 2; enough cells | 1.12 | 6055 | inactive |
| STMN1 | -0.81 | migration z between -2 and 2; enough cells | 0.68 | 5409 | inactive |
| KLHL7 | 1.4 | migration z between -2 and 2; enough cells | 1.25 | 6178 | inactive |
| MED19 | -1.83 | migration z between -2 and 2; enough cells | 0.42 | 4160 | inactive |
| MAT2A | -0.83 | migration z between -2 and 2; enough cells | 0.64 | 4237 | inactive |
| FERRY3 | -0.01 | migration z between -2 and 2; enough cells | 0.88 | 6069 | inactive |
| GLIPR1L2 | -0.52 | migration z between -2 and 2; enough cells | 0.75 | 3918 | inactive |
| BHMT2 | 0.62 | migration z between -2 and 2; enough cells | 0.92 | 5715 | inactive |
| TTC6 | 0.92 | migration z between -2 and 2; enough cells | 1.12 | 6714 | inactive |
| NEMP1 | -1.08 | migration z between -2 and 2; enough cells | 0.6 | 5284 | inactive |
| ZC3H13 | -1.43 | migration z between -2 and 2; enough cells | 0.52 | 4277 | inactive |
| ELOA2 | -1.99 | migration z between -2 and 2; enough cells | 0.37 | 4368 | inactive |
| CAND1 | 1.4 | migration z between -2 and 2; enough cells | 1.07 | 6150 | inactive |
| GTF3C6 | 0.72 | migration z between -2 and 2; enough cells | 1.07 | 5940 | inactive |
| RBM26 | 0.88 | migration z between -2 and 2; enough cells | 1.12 | 5879 | inactive |
| GTF3C5 | -0.57 | migration z between -2 and 2; enough cells | 0.7 | 6396 | inactive |
| ZNF750 | 2.63 | migration z above 2; enough cells | 1.56 | 7978 | active |
| GPM6A | -1.22 | migration z between -2 and 2; enough cells | 0.57 | 6526 | inactive |
| RACK1 | -1.06 | migration z between -2 and 2; enough cells | 0.6 | 6824 | inactive |
| PLEK | -0.1 | migration z between -2 and 2; enough cells | 0.86 | 5361 | inactive |
